The chains behind the UniProt entries cited, without tags or fusion partners.
UniProt P22314: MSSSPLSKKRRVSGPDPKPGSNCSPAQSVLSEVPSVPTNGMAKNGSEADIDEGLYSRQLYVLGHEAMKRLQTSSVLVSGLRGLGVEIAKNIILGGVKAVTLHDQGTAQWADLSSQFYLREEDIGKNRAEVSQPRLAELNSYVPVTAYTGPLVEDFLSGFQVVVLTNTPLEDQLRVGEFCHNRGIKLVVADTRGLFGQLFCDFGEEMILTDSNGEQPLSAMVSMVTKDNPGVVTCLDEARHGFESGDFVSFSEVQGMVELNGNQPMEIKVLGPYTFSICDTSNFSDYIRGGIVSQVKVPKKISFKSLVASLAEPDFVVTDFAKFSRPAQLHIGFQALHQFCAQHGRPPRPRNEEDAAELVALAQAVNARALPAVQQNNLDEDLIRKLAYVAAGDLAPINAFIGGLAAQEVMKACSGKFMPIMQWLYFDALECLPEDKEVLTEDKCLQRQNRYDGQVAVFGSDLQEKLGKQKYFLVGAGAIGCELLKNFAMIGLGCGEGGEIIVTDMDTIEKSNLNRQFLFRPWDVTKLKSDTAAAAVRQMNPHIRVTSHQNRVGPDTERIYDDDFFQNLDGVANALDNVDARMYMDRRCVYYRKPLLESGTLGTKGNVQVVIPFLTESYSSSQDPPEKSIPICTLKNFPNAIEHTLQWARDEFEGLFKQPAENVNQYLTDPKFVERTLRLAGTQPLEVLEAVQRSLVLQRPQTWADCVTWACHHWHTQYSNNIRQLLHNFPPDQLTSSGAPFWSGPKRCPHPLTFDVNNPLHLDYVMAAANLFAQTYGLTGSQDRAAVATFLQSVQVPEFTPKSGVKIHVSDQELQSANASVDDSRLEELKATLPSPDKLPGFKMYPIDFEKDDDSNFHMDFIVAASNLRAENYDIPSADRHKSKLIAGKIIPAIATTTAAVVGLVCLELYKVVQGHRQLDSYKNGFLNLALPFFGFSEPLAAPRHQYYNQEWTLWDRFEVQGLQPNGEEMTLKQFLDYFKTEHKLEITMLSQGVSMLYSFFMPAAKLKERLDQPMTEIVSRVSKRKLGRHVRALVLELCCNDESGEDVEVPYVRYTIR
UniProt P61086: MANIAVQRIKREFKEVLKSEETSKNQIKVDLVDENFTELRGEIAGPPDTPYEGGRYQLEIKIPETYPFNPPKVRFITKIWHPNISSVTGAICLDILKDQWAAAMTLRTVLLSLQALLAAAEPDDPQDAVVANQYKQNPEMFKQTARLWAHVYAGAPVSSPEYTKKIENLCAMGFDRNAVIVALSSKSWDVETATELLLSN
UniProt P61081: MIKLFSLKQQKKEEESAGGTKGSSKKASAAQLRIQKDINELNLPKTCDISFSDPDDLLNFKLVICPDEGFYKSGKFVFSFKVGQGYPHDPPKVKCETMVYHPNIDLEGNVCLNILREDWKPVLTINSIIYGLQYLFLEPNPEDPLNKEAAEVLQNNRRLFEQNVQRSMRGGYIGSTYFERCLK

In paper PMC10412574:

Biological target: HA-UBA1 (human) (UniProt P22314)
Experiment: affinity purification with mass spectrometry; HA-UBA1 transiently expressed in 293 T cells, AF or DMSO; anti-HA IP, on-beads digestion, label-free quantitative mass spectrometry; two experiments in quadruplicate

Row | Substance | binding
1 | endogenous UBE2K (from UniProt P61086 1-200) (enzyme) | binds
2 | endogenous UBE2M (from UniProt P61081 1-183) (enzyme) | binds

No constants are given. Whether binding was seen depends on the method and setting. Binding seen in cells or lysates may run through a third protein. These calls come from enrichment with a bait or labelling near it, and not all partners need be listed.
